PubChem BioAssay AID686938, Drosophila RNAi Screening Center | 2013

Assay: 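Fly genes required for calcium entry once internal stores are emptied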 (primary screen)
System: Drosophila S2R+ cells
Knock-down reagent: long dsRNA against Drosophila genes, about 0.25 µg dsRNA per well, roughly 10,000 cells
Duration: 5 days of knock-down before the calcium assay
Conditions: thapsigargin (SERCA pump blocker) to empty calcium stores; entry signal taken 4 min after adding it
Detection: 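Duplicate raw fluo-4 intensities per well from a plate reader, at rest and four minutes after thapsigargin emptied calcium stores; entry-to-rest ratio filled for only some wells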
Scale: calcium entry signal: higher = stronger calcium signal after store depletion; resting calcium signal: higher = higher resting calcium signal
Rule for the call: 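Called when the plate z-score of the entry-to-rest ratio, mean of duplicates, falls below −3; wells with low overall dye signal (Fmax z below −2) or more than five off-targets excluded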
Meaning of the calls: active = strongly reduced calcium entry; inactive = no strong reduction
The screen tested about 23,000 reagents; this is an unselected part of those that have a named target and a result. In the full data, 75 (0.33%) were called active. 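Raw plate signals without normalisation; calls rest on plate z-scores that were not deposited; ratio present for only 364 wells.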 Reagents against one gene are numbered here. A plus sign joins genes that one reagent is predicted to hit. The record does not give: the dose of the treatment.

| Gene | reagent no. | calcium entry signal, replicate 1 (fluorescence units) | calcium entry signal, replicate 2 (fluorescence units) | resting calcium signal, replicate 1 (fluorescence units) | resting calcium signal, replicate 2 (fluorescence units) | outcome |
| --- | --- | --- | --- | --- | --- | --- |
| CG12746 | 1 | 3.45e7 | 3.28e7 | 1.40e7 | 1.43e7 | inactive |
| RagA-B (Ras-related GTP binding A/B) | 1 | 2.68e7 | 3.08e7 | 1.13e7 | 1.37e7 | inactive |
| Ir94c (Ionotropic receptor 94c) | 1 | 3.57e7 | 2.92e7 | 1.67e7 | 1.43e7 | inactive |
| CG3652 | 1 | 3.32e7 | 2.22e7 | 1.62e7 | 1.09e7 | inactive |
| CG11594 | 1 | 4.98e7 | 3.75e7 | 3.06e7 | 1.59e7 | inactive |
| Scp1 (Sarcoplasmic calcium-binding protein 1) | 1 | 3.48e7 | 3.68e7 | 1.65e7 | 1.62e7 | inactive |
| Scp1 (Sarcoplasmic calcium-binding protein 1) | 2 | 3.59e7 | 4.41e7 | 1.54e7 | 1.90e7 | inactive |
| Scp1 (Sarcoplasmic calcium-binding protein 1) | 3 | 4.27e7 | 4.54e7 | 2.24e7 | 2.07e7 | inactive |
| CG11069 | 1 | 4.97e7 | 4.70e7 | 2.28e7 | 1.98e7 | inactive |
| CG30334 | 1 | 2.85e7 | 5.54e7 | 1.42e7 | 2.37e7 | inactive |
| Dlg5 (Discs large 5) | 1 | 4.30e7 | – | 1.91e7 | – | inactive |
| CG31205 | 1 | 4.04e7 | 2.78e7 | 2.12e7 | 1.39e7 | inactive |

Part of the list above, showing only “calcium entry signal, replicate 2 (fluorescence units)”:
RagA-B (Ras-related GTP binding A/B) = 3.08e7
Ir94c (Ionotropic receptor 94c) = 2.92e7

The results go on.
| Gene | reagent no. | calcium entry signal, replicate 1 (fluorescence units) | calcium entry signal, replicate 2 (fluorescence units) | resting calcium signal, replicate 1 (fluorescence units) | resting calcium signal, replicate 2 (fluorescence units) | outcome |
| --- | --- | --- | --- | --- | --- | --- |
| lky (leaky) | 1 | 4.75e7 | 5.17e7 | 2.36e7 | 2.28e7 | inactive |
| AlaRS-m (Alanyl-tRNA synthetase, mitochondrial) | 1 | 5.28e7 | 5.05e7 | 3.16e7 | 1.89e7 | inactive |
| CG17219 | 1 | 1.84e7 | 1.95e7 | 9.68e6 | 9.93e6 | inactive |
| CG10621 | 1 | 4.78e7 | 5.36e7 | 2.50e7 | 2.14e7 | inactive |
| CG3040 | 1 | 4.06e7 | 3.32e7 | 2.16e7 | 1.52e7 | inactive |
| l(2)34Fc (lethal (2) 34Fc) | 1 | 4.35e7 | 3.33e7 | 2.10e7 | 1.54e7 | inactive |
| disco-r (disco-related) | 1 | 3.48e7 | 3.45e7 | 1.79e7 | 1.53e7 | inactive |
| disco-r (disco-related) | 2 | 3.14e7 | 3.04e7 | 1.62e7 | 1.34e7 | inactive |
| CG7564 | 1 | 3.51e7 | 4.58e7 | 1.68e7 | 1.72e7 | inactive |
| Pcyt1 (Phosphocholine cytidylyltransferase 1) | 1 | 3.36e7 | 2.92e7 | 1.60e7 | 1.53e7 | inactive |
| Acp95EF + Spase22-23 | 1 | 4.74e7 | 6.83e7 | 2.35e7 | 2.76e7 | inactive |
| ckn (caskin) | 1 | 4.82e7 | 3.41e7 | 2.34e7 | 1.78e7 | inactive |
